Publication PMC8062120
Numbering of substitutions follows the chain as printed. Names may count otherwise. No constants are given. Whether binding was seen depends on the method and setting. Some entries that bind do so weakly or less than the wild type. For some of these results: Sequences can lack the tags named with a protein. One block for each binder: values may come before it.

Legend:
[1] = target: T1, Myotilin Ig1Ig2^250–444 (Ig1Ig2 tandem) (human), Q9UBF9; assay: SAXS; batch SAXS at high or comparable concentrations; Ig1Ig2^250–444 up to 14.12 mg/ml, Ig1Ig2^250–498 up to 42.8 mg/ml, Ig1Ig2^220–452 up to 52 or 36.6 mg/ml, R405K up to 45.5 mg/ml; 20 mM HEPES, 150 mM NaCl, 5% glycerol, 1 mM DTT, pH 7.4 (one 220–452 set in 20 mM MES, 200 mM NaCl, pH 6.0); mass from I0, Rg, Dmax, P(r); monomer to dimer; both …; settings: remark: other sources report otherwise
T1 chain: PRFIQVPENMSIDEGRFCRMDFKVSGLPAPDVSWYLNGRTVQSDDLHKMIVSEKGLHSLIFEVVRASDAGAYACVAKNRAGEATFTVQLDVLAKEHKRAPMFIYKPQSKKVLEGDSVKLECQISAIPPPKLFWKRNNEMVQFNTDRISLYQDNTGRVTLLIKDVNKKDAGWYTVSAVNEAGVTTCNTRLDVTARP

[2] = target: Myotilin Ig1Ig2^(220–452 R405K) (human) (UniProt Q9UBF9); assay: as above
[3] = target: Myotilin Ig1Ig2^220–452 (human) (UniProt Q9UBF9); assay: SAXS; batch SAXS, low end of the concentration series of Ig1Ig2^220–452 (series from 1 or 2.1 mg/ml); both purified
[4] = target: T2, Full-length myotilin with N-terminal thioredoxin tag (Trx-MYOT) (human), Q9UBF9; assay: SEC-SAXS with RALLS; Superdex 200 increase 10/300, 20 mM Tris, 400 mM NaCl, 250 mM arginine, 5% glycerol, pH 7.5; molecular mass from RI/RALLS and from SAXS; only low concentrations of Trx-MYOT; both purified; settings: remark: other sources report otherwise
T2 chain: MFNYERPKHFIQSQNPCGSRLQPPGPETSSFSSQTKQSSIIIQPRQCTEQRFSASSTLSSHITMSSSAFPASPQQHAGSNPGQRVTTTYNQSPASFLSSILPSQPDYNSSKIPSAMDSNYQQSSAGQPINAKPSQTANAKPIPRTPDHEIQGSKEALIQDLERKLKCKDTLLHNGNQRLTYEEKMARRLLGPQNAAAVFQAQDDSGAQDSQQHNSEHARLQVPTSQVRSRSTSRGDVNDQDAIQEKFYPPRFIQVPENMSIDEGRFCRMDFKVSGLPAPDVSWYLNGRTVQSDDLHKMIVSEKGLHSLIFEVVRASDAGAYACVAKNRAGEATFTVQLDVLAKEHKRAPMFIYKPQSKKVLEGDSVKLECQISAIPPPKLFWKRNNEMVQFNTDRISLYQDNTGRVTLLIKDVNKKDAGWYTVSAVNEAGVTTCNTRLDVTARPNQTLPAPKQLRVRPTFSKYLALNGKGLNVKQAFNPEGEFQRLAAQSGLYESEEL

- binding [1]: no binding (tested: up to 14.12 mg/ml)
B1: Myotilin Ig1Ig2^250–444 (Ig1Ig2 tandem), Q9UBF9 250-444 (domain or fragment)
chain: T1 chain

- binding [2]: binds weakly
B2: Myotilin Ig1Ig2^(220–452 R405K) (domain or fragment, UniProt Q9UBF9 220-452)
chain: LQVPTSQVRSRSTSRGDVNDQDAIQEKFYPPRFIQVPENMSIDEGRFCRMDFKVSGLPAPDVSWYLNGRTVQSDDLHKMIVSEKGLHSLIFEVVRASDAGAYACVAKNRAGEATFTVQLDVLAKEHKRAPMFIYKPQSKKVLEGDSVKLECQISAIPPPKLFWKRNNEMVQFNTDRISLYQDNTGKVTLLIKDVNKKDAGWYTVSAVNEAGVTTCNTRLDVTARPNQTLPAPK

B3: Myotilin Ig1Ig2^220–452 (domain or fragment, UniProt Q9UBF9 220-452)
chain: B2 chain with K186R
- binding [3]: no binding (condition: at low concentrations)

- binding [4]: no binding
B4: Full-length myotilin with N-terminal thioredoxin tag (Trx-MYOT), Q9UBF9 1-498 (natural protein)
chain: T2 chain
